Taken from: PubChem BioAssay AID1159578 (Peter MacCallum Cancer Centre, 2015)
Aim: 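Genome-wide hunt for genes controlling movement of lymphatic endothelial cells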 (primary screen). System: human lymphatic endothelial cells. Reagents: siRNA pool against human genes, 40 nM. Time to read-out: 48 h after transfection. Measurement: 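Cells stained with dye and imaged after a scratch; covered wound area and nuclei counted, duplicates averaged, migration set against mock wells and turned into a robust z-score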. Direction: migration robust z-score: higher = faster migration into the scratch; migration relative to mock: higher = more scratch area covered than mock; nuclei per well: higher = more cells in the well. Call rule: 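Pools averaging fewer than 3300 nuclei are never called; remaining pools count as changed when migration robust z lies outside -2 to 2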. Calls: active = migration changed; inactive = no migration change, or too few cells.
The whole screen tested about 18,000 reagents; this is a part drawn at random. About 1,030 of them (5.7%) count as active. 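Inactive calls also include pools with fewer than 3300 nuclei, whose migration was not assessed.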 Raw values are not corrected between plates.

no.	gene	migration robust z-score	migration class with cell-count check	migration relative to mock	nuclei per well, duplicate mean	Outcome
1	SYT2 (synaptotagmin 2)	0.06	migration z between -2 and 2; enough cells	0.9	6354	inactive
2	TRPM5	-0.44	migration z between -2 and 2; enough cells	0.72	4565	inactive
3	NEUROD6 (neuronal differentiation 6)	0.04	migration z between -2 and 2; enough cells	0.9	4869	inactive
4	TCHP (trichoplein keratin filament binding)	-0.37	migration z between -2 and 2; enough cells	0.78	6236	inactive
5	C9orf78 (chromosome 9 open reading frame 78)	-0.5	migration z between -2 and 2; enough cells	0.76	5984	inactive
6	OR2AE1 (olfactory receptor family 2 subfamily AE member 1)	-0.98	migration z between -2 and 2; enough cells	0.63	5368	inactive
7	SLC25A18	0.21	migration z between -2 and 2; enough cells	0.84	6104	inactive
8	NDUFA5 (NADH:ubiquinone oxidoreductase subunit A5)	-0.29	migration z between -2 and 2; enough cells	0.75	4097	inactive
9	GRAP2 (GRB2 related adaptor protein 2)	0.16	migration z between -2 and 2; enough cells	0.93	5788	inactive
10	ALS2 (alsin Rho guanine nucleotide exchange factor ALS2)	-2.05	migration z below -2; enough cells	0.34	3347	active
11	NSMCE1 (NSE1 component of SMC5/6 complex)	1.34	migration z between -2 and 2; enough cells	1.23	6766	inactive
12	GPBP1L1 (GC-rich promoter binding protein 1 like 1)	-0.48	migration z between -2 and 2; enough cells	0.76	6155	inactive
13	XRCC4 (X-ray repair cross complementing 4)	-1.12	migration z between -2 and 2; enough cells	0.59	5574	inactive
14	CCDC174 (coiled-coil domain containing 174)	-0.58	migration z between -2 and 2; enough cells	0.72	6374	inactive
15	CRLF2 (cytokine receptor like factor 2)	0.05	migration z between -2 and 2; enough cells	0.82	4830	inactive
16	CYP4A11 (cytochrome P450 family 4 subfamily A member 11)	0.62	migration z between -2 and 2; enough cells	0.92	4898	inactive
17	HM13 (histocompatibility minor 13)	-0.65	migration z between -2 and 2; enough cells	0.68	5492	inactive
18	CTU1 (cytosolic thiouridylase subunit 1)	0.47	migration z between -2 and 2; enough cells	1.01	5724	inactive
19	FCN2 (ficolin 2)	2	migration z between -2 and 2; enough cells	1.41	5924	inactive
20	DFFB (DNA fragmentation factor subunit beta)	0.05	migration z between -2 and 2; enough cells	0.82	6085	inactive
21	PHYHIP (phytanoyl-CoA 2-hydroxylase interacting protein)	0.34	migration z between -2 and 2; enough cells	0.98	5228	inactive
22	SETD2 (SET domain containing 2, histone lysine methyltransferase)	-2.42	migration z below -2; enough cells	0.34	4340	active
23	COLEC12 (collectin subfamily member 12)	0.58	migration z between -2 and 2; enough cells	1.04	5714	inactive
24	SEMA4G (semaphorin 4G)	0.18	migration z between -2 and 2; enough cells	0.93	4970	inactive
25	PTPRB (protein tyrosine phosphatase receptor type B)	0.54	migration z between -2 and 2; enough cells	0.91	6210	inactive
26	AIM2 (absent in melanoma 2)	-0.58	migration z between -2 and 2; enough cells	0.73	6010	inactive
27	CD164 (CD164 molecule)	-0.84	migration z between -2 and 2; enough cells	0.67	4680	inactive
28	CKB (creatine kinase B)	-4.12	under 3300 nuclei; migration not judged	0.01	3072	inactive
29	PLEKHG1 (pleckstrin homology and RhoGEF domain containing G1)	-1.66	under 3300 nuclei; migration not judged	0.45	2754	inactive
30	RIPOR2 (RHO family interacting cell polarization regulator 2)	-0.42	migration z between -2 and 2; enough cells	0.77	5832	inactive
31	ANKRD55 (ankyrin repeat domain 55)	-0.12	migration z between -2 and 2; enough cells	0.85	5394	inactive
32	CBY2 (chibby family member 2)	0.4	migration z between -2 and 2; enough cells	0.99	6376	inactive
33	NPY4R (neuropeptide Y receptor Y4)	-0.42	migration z between -2 and 2; enough cells	0.72	5576	inactive
34	ILF3 (interleukin enhancer binding factor 3)	-1.53	migration z between -2 and 2; enough cells	0.51	5647	inactive
35	BCAS4 (breast carcinoma amplified sequence 4)	-0.24	migration z between -2 and 2; enough cells	0.82	5682	inactive
36	EGFR (epidermal growth factor receptor)	0.34	migration z between -2 and 2; enough cells	0.87	5358	inactive
37	JKAMP (JNK1/MAPK8 associated membrane protein)	-1.34	migration z between -2 and 2; enough cells	0.54	5546	inactive
38	LCN1 (lipocalin 1)	-0.5	migration z between -2 and 2; enough cells	0.76	7450	inactive
39	ZNF135 (zinc finger protein 135)	1.58	migration z between -2 and 2; enough cells	1.29	7040	inactive
40	MACROH2A2 (macroH2A.2 histone)	-0.37	migration z between -2 and 2; enough cells	0.79	5615	inactive
41	CCZ1B (CCZ1B vacuolar protein trafficking and biogenesis associated)	0.19	migration z between -2 and 2; enough cells	0.93	5178	inactive
42	ARHGAP19 (Rho GTPase activating protein 19)	1.47	migration z between -2 and 2; enough cells	1.27	5160	inactive
43	SPMAP2 (sperm microtubule associated protein 2)	0.34	migration z between -2 and 2; enough cells	0.98	5348	inactive
44	TPTE2	-0.1	migration z between -2 and 2; enough cells	0.78	6264	inactive
45	DNAJB12 (DnaJ heat shock protein family (Hsp40) member B12)	0.57	migration z between -2 and 2; enough cells	1.03	5400	inactive
46	ZNF785 (zinc finger protein 785)	-2.27	migration z below -2; enough cells	0.3	6212	active
47	OR5L2 (olfactory receptor family 5 subfamily L member 2)	-1.3	migration z between -2 and 2; enough cells	0.55	4893	inactive
48	SPRTN (SprT-like N-terminal domain)	1.25	migration z between -2 and 2; enough cells	1.21	7276	inactive
49	ZG16 (zymogen granule protein 16)	-0.36	migration z between -2 and 2; enough cells	0.79	6221	inactive
50	UPRT (uracil phosphoribosyltransferase homolog)	0.08	migration z between -2 and 2; enough cells	0.9	5603	inactive
51	KRTAP4-2 (keratin associated protein 4-2)	-1.05	migration z between -2 and 2; enough cells	0.61	5596	inactive
52	PTGES3 (prostaglandin E synthase 3)	1.27	migration z between -2 and 2; enough cells	1.05	3752	inactive
53	PRPSAP2 (phosphoribosyl pyrophosphate synthetase associated protein 2)	0.67	migration z between -2 and 2; enough cells	1.06	5510	inactive
54	ITPRID2 (ITPR interacting domain containing 2)	0.61	migration z between -2 and 2; enough cells	1.04	6569	inactive
55	LENEP (lens epithelial protein)	-0.88	migration z between -2 and 2; enough cells	0.66	6130	inactive
56	CYTH2 (cytohesin 2)	1.35	migration z between -2 and 2; enough cells	1.23	4934	inactive
57	DAD1 (defender against cell death 1)	1.74	migration z between -2 and 2; enough cells	1.14	3446	inactive
